Structures are written as SMILES. Among all 1,200 compounds or so, fewer than 10 were called active.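 How the source made its calls: active means inhibition reaching a set limit at one or more tested concentrations; inactive means inhibition under that limit at every dose.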 Some of the results follow. Entries with a potency or affinity are not part of this list.

This assay can be described thus: yeast RAM network inhibitors, dose response, S. cerevisiae (AID 1307).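 Further: 0% = DMSO vehicle wells and 100% = 10 µM 1-NA-PP1 control; higher inhibition means more yeast growth since RAM block rescues cells from 5-FOA.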 The settings on record: S. cerevisiae RAM network URA3 reporter, 5-FOA growth OD615, active compounds read high, yeast express analog-sensitive mutant Cbk1 kinase; at 100 µM unless noted.
For `CC(=O)c1cc(C(=O)c2ccccc2)sc1Nc1ccccc1`, the max inhibition is inactive: 6.93%.
As for `COc1ccc(C(=O)Nc2cc(OC)c(Cl)cc2OC)cc1`, the figure is inactive: 3.65%; as for `CCCCCOc1ccc(NC(=O)c2cc(SC)ccc2Cl)cc1`, inactive: 6.24%.
For `O=C(CCCSc1ccccc1)Nc1nc(-c2ccco2)c(-c2ccco2)s1`, the max inhibition is inactive: 3.63%.
For the molecule `O=C(COC(=O)c1cc(-c2ccc(Cl)s2)nc2ccccc12)NCc1ccco1`, the max inhibition was inactive: 4.67% [at 6.25 µM].
On to `CCn1c(=NC(=O)c2cccc(N3C(=O)CCC3=O)c2)sc2c(OC)ccc(OC)c21`, for which the max inhibition is inactive: 4.47%.
For `C=C(CC1([C@@H](NP(=O)(c2ccccc2)c2ccccc2)[C@H]2C[C@@H]2CCCC)CC1)c1ccccc1` the value was inactive: 6.93%.
Take `COc1cccc(/C=C(/C(=O)OCC(=O)NC2CCCC(C)C2C)c2ccccc2)c1` (centres undefined): the max inhibition was inactive: 7.65% [at 50 µM].
Take `O=C(Nc1nc2ccccc2n1CCN1CCOCC1)c1cn(-c2ccccc2)nc1-c1ccccc1`: the max inhibition was inactive: 8.35%.
Regarding `C=CCN(CC=C)S(=O)(=O)c1ccc(NC(=S)NC(=O)Cc2ccc(OC)cc2)cc1`, the max inhibition was inactive: 3.47% [at 25 µM].
As for `CCCCOc1cccc(C(=O)NC(=S)Nc2cccc(C(F)(F)F)c2)c1`, the max inhibition was inactive: 4.25%.
Regarding `CCCCNC(=S)N(C)/N=C/c1ccc(OCC(=O)Nc2ccc(OC)cc2)c(OC)c1`, the max inhibition was inactive: 4.25%.
Turning to `O=C(COC(=O)c1ccc2c(=O)n3c(nc2c1)CCC3)Nc1ccc(OC(F)F)cc1`, the max inhibition is inactive: 4.22%.
Turning to `Cn1c(=O)cc(OCCCC(=O)NCc2ccc(F)cc2Cl)c2ccccc21`, the max inhibition is inactive: 5.53%.
Regarding `Cc1ccc(NC2=Nc3ccccc3N3C2=Nc2c(c(C)nn2-c2ccccc2)C3c2ccc(O)c(O)c2)cc1` (centres undefined), the max inhibition was inactive: 6.97%.
Consider `Cc1ccc(OCc2nnc(SCC(=O)Nc3ccc4c(c3)OCCO4)n2Cc2ccco2)cc1`, for which the max inhibition is inactive: 0.12% [at 0.782 µM].
For the molecule `COc1ccc(CSCC(=O)Nc2ccc(S(=O)(=O)N3CCCCCC3)cc2)cc1`, the max inhibition was inactive: 0.61% [at 0.196 µM].
In the case of `CCOc1nc(-c2ccccc2)ccc1-c1noc(COc2ccccc2)n1`, the max inhibition is inactive: 3.61% [at 50 µM].
Consider `N#CCc1ccc(NS(=O)(=O)c2ccc(C3CCCCC3)cc2)cc1`, for which the max inhibition is inactive: 5.22% [at 25 µM].
Take `CCCSc1nc(NCc2ccco2)c2c3c(sc2n1)COC(C)(CC)C3` (centres undefined): the max inhibition was inactive: 3.66%.
Regarding `COc1cc(/C=C/C(=O)c2ccc(C)cc2)ccc1OCC#N`, the max inhibition was inactive: 3.89% [at 50 µM].
For `COc1ccc(/C=C/C(=O)c2ccc(OC)cc2OC)c(OC)c1` the value was inactive: 5.33% [at 1.563 µM]; for `O=C(c1cccs1)n1nc(-c2ccc(Cl)cc2)nc1NCc1ccco1`, inactive: 2.48%; for `O=C(O)CCN1C(=O)/C(=C/c2cn(-c3ccccc3)nc2-c2cccs2)SC1=S`, inactive: 5.53%.
`CC(/C=C1\SC(=S)N(C(C(=O)O)C(C)C)C1=O)=C\c1ccccc1` (centres undefined): the max inhibition was inactive: 4.71%.
In the case of `CCOC(=O)c1c(C)[nH]c(N=Nc2cccc(C)c2)c1C`, the max inhibition was inactive: 5.31%.
As for `COC(=O)c1cc(=O)n(Cc2ccc(F)cc2)c(=NCc2ccc(F)cc2)s1`, the figure is inactive: 4.01%.
Turning to `C=CCc1ccccc1OCC(=O)N/N=C/c1ccccc1OCC`, the max inhibition was inactive: 2.28% [at 0.196 µM].
On to `CCOC(=O)c1sc(NC(=O)CSc2nnc(-c3ccc(OC)cc3)n2CCOC)nc1C`, for which the max inhibition is inactive: 1.33% [at 0.782 µM].
For `CC(C)CCN(N=O)[C@@H](Cc1ccccc1)CN(N=O)[C@@H](Cc1ccccc1)CN(C)N=O` the value was inactive: 5.05% [at 50 µM].
As for `Cc1cc2ccccc2n1CCNC(=O)COc1ccc2ccccc2c1`, the max inhibition is inactive: 4.59%.
For `CCCCc1ccc(-c2csc(/C(C#N)=C\c3ccc(C)o3)n2)cc1` the value was inactive: 5.43%; for `CCN(Cc1ccccc1)c1ccc(/C=N/NS(=O)(=O)c2cccc([N+](=O)[O-])c2)cc1`, inactive: 4.04% [at 25 µM]; for `O=C(Nc1ccc(-c2nc3ccccc3s2)cc1)c1cc(-n2cnnc2)ccc1Cl`, inactive: 14.8%.
For `COc1ccccc1C1(CCNS(=O)(=O)c2ccc(C)cc2)CCOC(C(C)C)C1` (centres undefined) the value was inactive: 5.47% [at 50 µM].
Consider `O=C(/C=C/c1ccc(Cl)cc1Cl)NCCSCc1ccccc1`, for which the max inhibition is inactive: 1.44% [at 50 µM].
For `Cc1ccc(S(=O)(=O)N2CCC(C)CC2)cc1[N+](=O)[O-]` the value was inactive: 0.92% [at 1.563 µM]; for `CCCN(CCC)C(=O)c1ccc2c(=O)n(Cc3ccco3)c(=S)[nH]c2c1`, inactive: 3.63%.
For the molecule `Cc1ccc(SCCNC(=O)c2ccc(C)c(S(=O)(=O)Nc3ccccc3C)c2)cc1`, the max inhibition was inactive: 4.38% [at 50 µM].
In the case of `O=[N+]([O-])c1ccc(C2CCCC/C2=N/OCc2ccc(F)cc2)c([N+](=O)[O-])c1` (centres undefined), the max inhibition is inactive: 4.01% [at 0.196 µM].
`O=C(CSCc1nc2c(nnn2Cc2ccc(F)cc2)c(=O)[nH]1)Nc1cccc(C(F)(F)F)c1`: the max inhibition was inactive: 2.69% [at 0.782 µM].
With `O=C(CSc1nnc(-c2ccncc2)n1-c1ccccc1Cl)Nc1ccc(C(=O)O)cc1`, the max inhibition is inactive: 5.43%.
Consider `CC(C)C[C@H](NC(=O)c1[nH]cnc1C(=O)N[C@H](C)c1ccccc1)C(=O)OCc1ccccc1`, for which the max inhibition is inactive: 6.21%.
`O=C(CCOc1ccccc1)Nc1cccc(S(=O)(=O)Nc2ccccc2Cl)c1`: the max inhibition is inactive: 2.77% [at 12.5 µM].
As for `Brc1ccc(Cn2c(-c3ccc(Br)o3)nc3ccccc32)o1`, the figure is inactive: 3.76% [at 3.125 µM]; as for `Cc1ccc(NC(=O)COC(=O)COc2ccc(Cl)cc2C)c([N+](=O)[O-])c1`, inactive: 3.12%.
Turning to `O=C(O)c1cc(N2N=C(C(F)(F)F)/C(=C/C=C/c3ccco3)C2=O)ccc1Cl`, the max inhibition was inactive: 12.9%.
On to `COc1cccc(CSc2nc3cc4c(cc3cc2C)OCCO4)c1`, for which the max inhibition was inactive: 4.23% [at 0.391 µM].
On to `Cc1ccc(S(=O)(=O)N(CC(=O)Nc2ccccc2C(=O)O)c2cccc(Cl)c2C)cc1`, for which the max inhibition was inactive: 3.29%.
Turning to `CN(C)c1nc(SCCOC(=O)COc2ccc(Cl)cc2Cl)nc(N(C)C)n1`, the max inhibition is inactive: 1.44% [at 0.782 µM].
As to `O=C(Nc1cccnc1Cl)c1ccc2c(Cl)c3c(nc2c1)CCC3`, the max inhibition is inactive: 5.53%.
As for `Cc1ccc(/C=N/NC(=O)CCCOc2ccc(Cl)cc2Cl)cc1`, the max inhibition is inactive: 2.59%.
On to `CCOc1ccc(-n2c(C)nc(O)c2N=Nc2ccccc2)cc1`, for which the max inhibition was inactive: 3.78%.
For the molecule `O=C(COC(=O)CCCNC(=O)c1ccc(Cl)cc1)Nc1cc(Cl)ccc1Cl`, the max inhibition was inactive: 3.65%.
As for `O=C(CSCc1ccccc1)Nc1cccc(C(=O)Nc2ccccc2C(=O)O)c1`, the figure is inactive: 1.19% [at 3.125 µM]; as for `CCOCCCNC(=O)c1cc(=O)n(Cc2cccc(C)c2)c2ccccc12`, inactive: 3.72% [at 3.125 µM]; as for `N#CC(C#N)=C(Nc1ccc(F)cc1)SCc1cccc(Br)c1`, inactive: 0.58% [at 25 µM].
As for `COc1ccc(COc2ccsc2C(=O)Nc2ccc(Cl)c(Cl)c2)cc1`, the figure is inactive: 2.5% [at 6.25 µM].
For `O=C(CCCn1c(SCc2cccc(F)c2)nc2ccccc2c1=O)NCC1CCCO1` (centres undefined) the value was inactive: 4.98% [at 50 µM]; for `Cc1ccc(C(=O)Nc2ccc(C(=O)O)cc2)cc1S(=O)(=O)NCc1ccccc1`, inactive: 4.27%.
In the case of `O=C(COC(=O)c1cc(Cl)ccc1[N+](=O)[O-])NCc1ccc(Cl)cc1Cl`, the max inhibition was inactive: 4.62% [at 1.563 µM].
For `COC(=O)C(Sc1nc(C)cc(C)c1C#N)c1ccccc1` (centres undefined) the value was inactive: 2.46% [at 0.782 µM]; for `O=C(/C=C/c1ccc(N2CCCCC2)c([N+](=O)[O-])c1)c1ccc(S(=O)(=O)N2CCCC2)cc1`, inactive: 4.39%; for `O=C(CSc1nc(-c2ccco2)cc(C(F)(F)F)n1)NCCc1ccccc1`, inactive: 2.41% [at 12.5 µM].
Turning to `Cc1ccc(C(=O)NCCSCc2ccc(Cl)cc2Cl)cc1[N+](=O)[O-]`, the max inhibition was inactive: 2.08% [at 0.782 µM].
Turning to `CCN(Cc1ccccc1)c1ccc(/C=C(\C#N)c2ccccn2)cc1`, the max inhibition was inactive: 7.2%.
On to `N#Cc1c(C(F)(F)F)cc(C2CC2)nc1N1CCCC1`, for which the max inhibition is inactive: 3.33% [at 3.125 µM].
Regarding `CCOc1ccc(CNC(=O)CCc2cn(Cc3ccccc3)c3ccccc23)cc1`, the max inhibition was inactive: 5.78% [at 50 µM].
For the molecule `O=C(O)c1cc(Sc2ccc(Br)cc2)nc2ccccc12`, the max inhibition is inactive: 4.44% [at 50 µM].
Regarding `Cc1cc(C)nc(N2N=C(CSc3ccc(Cl)cc3)CC2=O)n1`, the max inhibition is inactive: 1.21% [at 12.5 µM].
For `CC(=O)c1ccc(N(C(=O)CS(=O)CC(=O)Nc2ccc(F)cc2)C(C(=O)NC2CCCCC2)c2cccs2)cc1` (centres undefined) the value was inactive: 3.56% [at 3.125 µM].
For the molecule `C/C(=N\OC(=O)c1ccc(OC(C)C)cc1)c1ccc(C)c(C)c1`, the max inhibition was inactive: 3.12%.
For `O=C(COc1ccccc1)OC(C(=O)c1ccccc1)c1ccccc1` (centres undefined), the max inhibition was inactive: 2.05% [at 50 µM].
In the case of `O=C(COC(=O)/C(=C/c1cccs1)c1cccs1)NCc1ccccc1Cl`, the max inhibition was inactive: 3.28% [at 0.196 µM].
On to `O=S(=O)(c1ccccc1)n1nc(-c2ccccc2)nc1NCc1ccco1`, for which the max inhibition is inactive: 5.15%.
As for `CCCCC(=O)Nc1ccccc1C(=O)OCC(=O)c1ccc2c(c1)OCCO2`, the max inhibition is inactive: 2.31% [at 0.196 µM].
As for `O=C(Nc1ccccc1)C1=C[C@@H](C2CCCCC2)C[C@@H](OCc2ccc(CO)cc2)O1`, the max inhibition is inactive: 4.47%.
For the molecule `S=C(c1ccc(-c2cc(Cl)ccc2Cl)o1)N1CCCCC1`, the max inhibition was inactive: 2.31% [at 50 µM].
With `Cc1cccc(Nc2nc(NCc3ccco3)c3ccccc3n2)c1`, the max inhibition was inactive: 0.95% [at 0.196 µM].
